# Assay results as given in PubChem BioAssay AID1487 (National Center for Advancing Translational Sciences (NCATS), 2009).
# Several values for one entry are separate records, joined by “and”; a condition that tells them apart may be missing. Equal values may be shown once. This is one part of the list. These are further read-outs of the screen, such as a control signal, another cell line or another target. No call is given for them. Compounds called inactive in the main read-out are mostly missing here. Potencies come from curve fits of mixed quality, noted in brackets.
# Assay: qHTS Assay for Modulators of Lamin A Splicing
# Settings: HeLa LMNA splicing GFP/RFP minigene ratio, 48 h
# How it was run: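 S3 HeLa cells stably expressing lamin A-EGFP splicing minigene plus DsRed2, 600 cells/well, 48 h compound exposure at 37C. Laser-scanning cytometry; analysed as GFP (500-530 nm)/RFP (575-640 nm) total intensity ratio; 0.5% DMSO vehicle.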
# [1] = measured here: RFP viability control channel
# [2] = measured here: GFP splicing reporter channel
compound,measurement,setting,value
CCCCN(CCCC)C(=O)c1cc2ccccc2c(=O)o1,AC50,[1],"35.5 µM [rising, single point]"
O=C(Nc1ncc(Cc2cccc(Cl)c2)s1)c1ccc([N+](=O)[O-])cc1,AC50,[2],"6.31 µM [rising, partial curve]"
same,AC50,[1],"7.08 µM [rising, partial curve]"
O=C(N/N=C/c1ccco1)c1cc(-c2cccc(Br)c2)nc2ccccc12,AC50,[1],"25.1 µM [rising, single point]"
CN(C)c1ccc(NC(=S)c2ccccn2)cc1,AC50,[1],"15.8 µM [rising, single point]"
CC1=CC(=O)C=C(C)C1=NOc1ccc([N+](=O)[O-])cc1,AC50,[2],"0.0316 µM [rising, full curve, poor fit]"
Cc1cccc(CNC(=O)C2CCN(S(=O)(=O)c3cccc4nonc34)CC2)c1,AC50,[1],"3.55 µM [falling, single point]"
CC1=CC(C)(C)Nc2ccc(OS(=O)(=O)c3ccc(C)cc3)cc21,AC50,[2],"15.8 µM [rising, single point]"
O=c1cc(O)c2c(=O)n(-c3ccccc3)c3c(c2o1)CCCCC3,AC50,[2],"0.794 µM [rising, full curve, poor fit]"
same,AC50,[1],"3.16 µM [rising, partial curve, poor fit]"
Cc1ccc(C(C)C)c(OCc2ccc(-c3nnco3)cc2)c1,AC50,[2],"0.00891 µM [rising, full curve, poor fit]"
same,AC50,[1],"35.5 µM [rising, single point]"
O=C(Nc1ccc(Br)cc1)c1ccc(Br)c(S(=O)(=O)Nc2cccnc2)c1,AC50,[2],"35.5 µM [falling, single point]"
O=C(COC(=O)c1cc(-c2cccs2)nc2ccccc12)NCc1ccco1,AC50,[1],"22.4 µM [falling, partial curve, poor fit]"
Cn1c(=O)c(C(=S)NC(=O)C2CC2)c(N)n(Cc2ccccc2)c1=O,AC50,[1],"31.6 µM [rising, single point]"
Cc1ccccc1OCC(=O)N/N=C/c1ccncc1,AC50,[1],"0.0224 µM [rising, full curve, poor fit]"
COc1ccc(N2CCN(Cc3cc(=O)oc4cc(-c5ccccc5)c(O)cc34)CC2)cc1,AC50,[2],"10 µM [rising, single point]"
Cc1nc2c3cc(Cl)ccc3n(CCN3CCCCC3)c2s1,AC50,[1],"31.6 µM [rising, single point]"
O=C1NCCCC2c3cc(O)c4ccccc4c3OC12N1CCCCC1 (centres undefined),AC50,[1],"35.5 µM [rising, single point]"
COc1ccc(CNc2ccnc(-c3c(C)noc3C)n2)c(OC)c1,AC50,[2],"11.2 µM [falling, partial curve, poor fit]"
Clc1ccc(CSc2nnc(Cn3cnc4ccccc43)o2)cc1,AC50,[1],"11.2 µM [rising, partial curve]"
Cc1ccc(N/N=C/c2cccnc2)cc1,AC50,[1],"35.5 µM [rising, single point]"
CC(C)CC(NC(=O)C(CC(C)C)NC(=O)C(Cc1ccc(OCc2ccccc2)cc1)NC(=O)OC(C)(C)C)C(N)=O (centres undefined),AC50,[2],"31.6 µM [falling, single point]"
same,AC50,[1],"35.5 µM [falling, single point]"
CC1Cc2ccccc2N1c1ncnc(N)c1[N+](=O)[O-] (centres undefined),AC50,[1],"0.00501 µM [falling, full curve, poor fit]"
COc1ccc(S(=O)(=O)NCC(c2ccco2)S(=O)(=O)c2cccs2)cc1OC (centres undefined),AC50,[1],"11.2 µM [rising, partial curve]"
CC(=O)Nc1cccc(C(=O)/C=C/c2ccc(Br)cc2)c1,AC50,[1],"22.4 µM [falling, single point]"
CCOc1ccc(NC(=O)c2cccc(OC(=S)N3CCOCC3)c2)cc1,AC50,[1],"2.82 µM [falling, partial curve]"
CCc1ccc(CNC(=O)c2cc3c(C)nc4ccccc4c3o2)cc1,AC50,[1],"6.31 µM [rising, single point]"
COc1ccc(CC(=O)Nc2cc3oc4ccccc4c3cc2OC)cc1,AC50,[2],"25.1 µM [rising, single point]"
same,AC50,[1],"25.1 µM [rising, partial curve]"
O=C(CC(=O)N/N=C/c1ccccc1O)NCc1cccnc1,AC50,[1],"31.6 µM [rising, single point]"
Cc1cccc(N=C2NN=C(c3c(C)[nH]c4ccccc34)CS2)c1,AC50,[1],"17.8 µM [falling, partial curve]"
CCCCOC(=O)CCNc1n[nH]c(=O)[nH]c1=O,AC50,[1],"2.24 µM [falling, partial curve]"
CCOc1ccccc1-n1nnnc1SCC(=O)NCc1ccco1,AC50,[1],"0.0631 µM [falling, full curve, poor fit]"
C=CCOCCN(C)C1=NS(=O)(=O)c2cc([N+](=O)[O-])ccc21,AC50,[2],"15.8 µM [falling, single point]"
same,AC50,[1],"35.5 µM [falling, single point]"
CCNC(=O)CC1SC(=Nc2cccc(Cl)c2C)N(C)C1=O (centres undefined),AC50,[1],"25.1 µM [rising, single point]"
CN(Cc1cccs1)c1ncnc2sccc12,AC50,[1],"4.47 µM [rising, full curve]"
CC(C)(C)n1nnnc1C(c1ccc2ncccc2c1)N1CCSCC1 (centres undefined),AC50,[2],"12.6 µM [falling, partial curve]"
CCOC(=O)c1c(C)nn(-c2ncccc2NC(=O)CCC(=O)O)c1C,AC50,[2],"0.316 µM [falling, partial curve, poor fit]"
Cc1cc(C)c2nc(NNC(=O)c3ccc(S(=O)(=O)N4CC(C)CC(C)C4)cc3)sc2c1 (centres undefined),AC50,[2],"35.5 µM [falling, single point]"
COC(=O)C1=CN(c2ccc(OC)cc2)C=C(C(=O)OC)C1c1ccc(C)c([N+](=O)[O-])c1,AC50,[2],"35.5 µM [rising, single point]"
CC1=NN(c2ccccc2)C(=O)C1N=Nc1ccc(N)cc1 (centres undefined),AC50,[1],"10 µM [rising, partial curve]"
Cc1ccc(OCCSc2nc3ccc(NC(=O)COc4ccc(C)cc4)cc3s2)cc1,AC50,[2],"35.5 µM [falling, partial curve]"
same,AC50,[1],"35.5 µM [falling, single point]"
COc1ccc(N2C(=O)C3CCCCC3C2=O)cc1NC(=O)c1ccccc1 (centres undefined),AC50,[2],"0.0158 µM [falling, full curve, poor fit]"
same,AC50,[1],"0.0158 µM [falling, full curve, poor fit]"
CC(C)c1nc(N2CCOCC2)c(C#N)c2c1CCC2,AC50,[2],"22.4 µM [rising, single point]"
same,AC50,[1],"15.8 µM [rising, partial curve, poor fit]"
CC1CCN(C(=O)c2ccc(CSc3nc4ccncc4n3Cc3ccc(F)cc3)cc2)CC1,AC50,[2],"8.91 µM [rising, partial curve]"
same,AC50,[1],"14.1 µM [rising, partial curve]"
CN1CCN(S(=O)(=O)c2cccc(S(=O)(=O)c3ccc(Cl)cc3)c2)CC1,AC50,[2],"12.6 µM [rising, partial curve]"
same,AC50,[1],"14.1 µM [rising, partial curve]"
Cc1nc(Sc2nnnn2C)c2c3c(sc2n1)CCC3,AC50,[2],"3.98 µM [falling, full curve]"
O=C(CCN1CCOCC1)Nc1ccccc1,AC50,[1],"0.355 µM [falling, full curve, poor fit]"
NNCCc1ccccc1,AC50,[2],"501 nM [falling, partial curve, poor fit] and 2.51 µM [rising, full curve, poor fit]"
same,AC50,[1],"0.501 µM [falling, partial curve, poor fit]"
CCCCNC(=O)c1ccc(-c2nc(CN3CCc4ccccc43)c(C)o2)cc1,AC50,[2],"4.47 µM [falling, full curve, poor fit]"
same,AC50,[1],"7.08 µM [falling, full curve]"
Fc1ccc(CN2C3=NCCCN3c3ccccc32)cc1,AC50,[1],"25.1 µM [rising, single point]"
O=C(CSc1nc2c(c(C(F)(F)F)n1)CCc1ccccc1-2)NCc1ccco1,AC50,[2],"4.47 µM [rising, partial curve, poor fit]"
CCOC(=O)c1ccccc1NC(=O)Cc1sc(-c2cccnc2)nc1-c1ccc(C)cc1,AC50,[1],"14.1 µM [rising, single point]"
CN(C)c1ccc(NC(=O)/C=C/c2c(Cl)cccc2Cl)cc1,AC50,[1],"6.31 µM [rising, partial curve]"
CN1CCN(CC(=O)N2CCn3c4c(c5cc(C6CCCCC6)ccc53)CCCC42)CC1 (centres undefined),AC50,[2],"28.2 µM [falling, single point]"
same,AC50,[1],"35.5 µM [falling, single point]"
O=C(Nc1nccs1)C1CCN(S(=O)(=O)c2ccc3c(c2)OCCCO3)CC1,AC50,[1],"11.2 µM [rising, partial curve]"
NC(=O)c1ccccc1NC(=O)CCc1ccccc1,AC50,[1],"25.1 µM [rising, partial curve, poor fit]"
CN(c1ccccc1C(=O)NC1CC2CCC1C2)S(=O)(=O)c1ccccc1 (centres undefined),AC50,[1],"0.112 µM [rising, full curve, poor fit]"
Cc1ccc(S(=O)(=O)N2CCC(=O)N(CCOCc3cccc(Cl)c3)CC2)cc1,AC50,[2],"35.5 µM [rising, single point]"
same,AC50,[1],"35.5 µM [rising, single point]"
COc1nc(C)nc2c1sc(=S)n2C,AC50,[2],"6.31 µM [rising, full curve, poor fit]"
O=C(C1CCCCC1)N(CCN1CCCC1)c1nc2ccccc2s1,AC50,[2],"0.02 µM [rising, full curve, poor fit]"
same,AC50,[1],"5.62 µM [rising, single point]"

# An excerpt of these results, as tab-separated lines:
compound	measurement	setting	value
CN1CCN(S(=O)(=O)c2cccc(S(=O)(=O)c3ccc(Cl)cc3)c2)CC1	AC50	[2]	12.6 µM [rising, partial curve]
same	AC50	[1]	14.1 µM [rising, partial curve]
Cc1nc(Sc2nnnn2C)c2c3c(sc2n1)CCC3	AC50	[2]	3.98 µM [falling, full curve]
